Measurements taken from publication PMC3425481.
No constants are given. Whether binding was seen depends on the method and setting. Binding seen in cells or lysates may run through a third protein. Some results given as binding are weak or reduced against the parent protein; the word gives no strength.

Protein sequences, listed by entry. Tags and fused reporters are not part of them.
UniProt P84022: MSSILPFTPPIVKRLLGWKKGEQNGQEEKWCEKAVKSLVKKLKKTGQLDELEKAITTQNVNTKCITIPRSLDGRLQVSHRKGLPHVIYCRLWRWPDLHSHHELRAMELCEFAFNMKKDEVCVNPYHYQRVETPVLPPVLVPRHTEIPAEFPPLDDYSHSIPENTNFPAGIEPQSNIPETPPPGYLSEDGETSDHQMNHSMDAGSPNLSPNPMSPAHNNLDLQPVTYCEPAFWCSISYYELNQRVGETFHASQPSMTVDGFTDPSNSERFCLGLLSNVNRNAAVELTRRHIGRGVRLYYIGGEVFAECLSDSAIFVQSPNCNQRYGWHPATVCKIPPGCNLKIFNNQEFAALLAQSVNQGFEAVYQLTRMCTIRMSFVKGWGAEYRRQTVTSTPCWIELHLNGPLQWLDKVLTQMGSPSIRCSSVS
UniProt Q9HAU4: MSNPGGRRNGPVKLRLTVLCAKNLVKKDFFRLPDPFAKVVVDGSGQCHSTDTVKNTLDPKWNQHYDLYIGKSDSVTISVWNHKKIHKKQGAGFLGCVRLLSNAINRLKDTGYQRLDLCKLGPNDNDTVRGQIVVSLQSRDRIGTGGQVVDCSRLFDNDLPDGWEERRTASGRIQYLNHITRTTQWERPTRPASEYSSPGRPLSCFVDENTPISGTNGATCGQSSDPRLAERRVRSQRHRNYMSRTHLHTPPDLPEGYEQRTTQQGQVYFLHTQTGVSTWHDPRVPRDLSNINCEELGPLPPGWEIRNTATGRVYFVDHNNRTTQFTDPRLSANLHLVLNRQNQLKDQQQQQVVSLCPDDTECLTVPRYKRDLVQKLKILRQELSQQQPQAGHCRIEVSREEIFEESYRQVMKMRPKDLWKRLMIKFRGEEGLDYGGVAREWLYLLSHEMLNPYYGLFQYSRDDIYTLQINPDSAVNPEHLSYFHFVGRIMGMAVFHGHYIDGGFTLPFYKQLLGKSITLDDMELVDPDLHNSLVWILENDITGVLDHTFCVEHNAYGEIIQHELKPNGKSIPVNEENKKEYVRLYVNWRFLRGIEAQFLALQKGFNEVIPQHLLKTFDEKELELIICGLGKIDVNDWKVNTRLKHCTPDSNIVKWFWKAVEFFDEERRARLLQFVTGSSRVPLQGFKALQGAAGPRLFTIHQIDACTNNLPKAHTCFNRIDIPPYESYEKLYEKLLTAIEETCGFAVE

Target: Smad3 phosphorylated at the C-terminus (pSmad3C) (human (endogenous in ES-2)) (UniProt P84022)
Experiment: co-IP; immunoprecipitation with α-pSmad3C (overnight, 4°C) and protein A-sepharose from lysates of 10^8 ES-2 cells treated with TGF-β1 (1 h) or 2ME2 (16 h); 420 mM NaCl, 50 mM Hepes pH 7.8, 5 mM EDTA, 1% NP-40, 3% DTT; blots with α-Ski, α-Smurf2, α-tSmad2/3; control: sepharose beads alone

## Smurf2 (from UniProt Q9HAU4 1-748)
  binding: binds
